Drawing on PMC5984758, this text covers binding for one substance.

Results are given in words; binding and its absence hold for the method and conditions named. Binding seen in cells or lysates may run through a third protein. Binding calls can cover weak binding; strength is not graded here. Sequences can lack the tags named with a protein.

The target in this assay is T1, YFP^N-NSN1 (Arabidopsis) (UniProt Q9M8Z5).
T1 sequence: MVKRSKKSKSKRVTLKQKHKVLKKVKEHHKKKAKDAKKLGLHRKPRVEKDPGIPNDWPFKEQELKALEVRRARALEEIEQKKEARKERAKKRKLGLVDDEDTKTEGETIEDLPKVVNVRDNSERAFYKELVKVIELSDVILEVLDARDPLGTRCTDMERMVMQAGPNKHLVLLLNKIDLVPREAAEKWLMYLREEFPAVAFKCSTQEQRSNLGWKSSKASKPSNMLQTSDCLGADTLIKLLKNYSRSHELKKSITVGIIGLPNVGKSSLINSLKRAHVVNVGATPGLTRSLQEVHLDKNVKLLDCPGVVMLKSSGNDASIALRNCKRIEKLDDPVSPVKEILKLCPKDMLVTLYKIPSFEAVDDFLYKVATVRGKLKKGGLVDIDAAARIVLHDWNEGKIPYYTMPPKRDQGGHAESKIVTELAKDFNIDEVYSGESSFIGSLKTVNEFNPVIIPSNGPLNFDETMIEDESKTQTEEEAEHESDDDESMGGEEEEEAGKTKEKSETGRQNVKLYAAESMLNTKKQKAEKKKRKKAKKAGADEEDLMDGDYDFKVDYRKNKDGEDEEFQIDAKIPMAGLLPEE
The assay is described as follows: split reporter; BiFC in tobacco leaf epidermal cells, Agrobacterium-infiltration, confocal microscopy after 48 h; signal in nuclei (DAPI).

Regarding YFP^C-NAP1;1 (Arabidopsis), the binding entry is reported as “binds”.
